The values below come from patent US4189426A (Hoffmann-La Roche, Inc., priority 1978, dated 1980).

The nature of the series: general procedure: Boc solid-phase peptide synthesis; Boc-Phe resin; symmetrical anhydrides of Boc amino acids; Boc asparagine coupled in the presenc. As to conditions: whole synthesis; for isolated yield: based on starting Boc-Phe resin.

Substance “[Lys^135,136,138, Glu^137,139, Nle^170,Ala^165,182,189 ]-HGH-(135-191)” displayed an isolated yield of 4.7%. Under “scale 0.036 mmol”, this substance showed a crude mass of 167 mg.
“[Nle^170, Ala^165,182,189 ]-HGH-(140-191)” returned an isolated yield of 3.7%. Also, the crude mass (scale 0.042 mmol) turned out to be 208 mg.
Turning to “[Nle^170, Ala^165,182,189 ]-HGH-(145-191)”, the isolated yield was 4.6%. Further, the crude mass (scale 0.050 mmol) is 178 mg.
